Reference: patent publication US20250236616A1, “IMMUNOMODULATING AZALIDES” (Zoetis Services LLC, priority 2021, published 2025)
For at least one compound, name, drawing or mass did not settle the structure.

Assays:
[1] = tested on: M. haemolytica; assay: MIC, M. haemolytica strains; assay type: cell-based; details: lung isolates at necropsy, natural BRD study, n=116
Source text: (§1) Primary screening of the compounds of the invention included the evaluation of antibacterial activity of analogs through determination of microbial inhibition concentration (MIC) as per CLSI guidelines. The screening panel included the relevant BRD pathogens: 1) M. haemolytica (e.g., 12726, 46571 and 49023, all AHDRCC; and 33396 (ATCC)); and 2) P. multocida (e.g., 34135 and 46572 (both AHDRCC) and 43137 (ATCC)). In some instances, H. somni (A700025K) pathogens were also included in the screening panel. The AHDRCC strains originated from the Zoetis BRD/SRD surveillance program and refer to the Animal Health Development and Research Culture Collection. In addition, the screen assessed S. aureus (29213 ATCC) as a representative Gram-positive isolate, E.faecalis (19433 ATCC) as a commensal gram-positive gastrointestinal bacterium and E. coli (100, 3110 and 25922 (ATCC)) for the evaluation of efflux potential. The screening panel BRD pathogens were assessed in determining antibacterial activity of the Formula (1) compounds.
(§2) All relevant BRD pathogens were initially screened at a top concentration of 64 μg/mL of a Formula (1) compound in an eleven-point dilution series. […] If an Example was purified further, the MICs moved […] essentially two dilutions across all strains tested in the screening panel. […]

[2] = tested on: P. multocida; assay: MIC, P. multocida strains; assay type: cell-based; set-up: unit not given beside the values; details: lung isolates at necropsy, natural BRD study, n=33
Source text: as §1, §2

CCCN1C[C@H](C)[C@@H](O)[C@](C)(O)[C@@H](CC)OC(=O)[C@H](C)[C@@H](O[C@H]2C[C@@](C)(OC)[C@@H](O)[C@H](C)O2)[C@H](C)[C@@H](O[C@@H]2O[C@H](C)C[C@H](N(C)C)[C@H]2O)[C@](C)(O)C[C@H]1C [gamithromycin, reference compound]
MIC Range [1]: 0.5->64 | MIC Range [2]: 0.5->64
